Some entries repeat one wording, which the source may state once for all of them.
Test: Wax scrub test with neat solvents on waxed vinyl floor tile
Settings: neat solvent; for Removal of wax layer: after 1000 strokes, FIG. 5; for Number of Strokes in Wax Test Shown in FIG. 5: strokes required to achieve the results shown in FIG. 5

dibasic ester
Removal of wax layer: did not remove the wax layer | Number of Strokes in Wax Test Shown in FIG. 5: 1000 strokes

CC(C)=O [Acetone, acetone]
Number of Strokes in Wax Test Shown in FIG. 5: 50 strokes

C=C(C)[C@H]1CC=C(C)CC1 [d-limonene]
Removal of wax layer: did not remove the wax layer | Number of Strokes in Wax Test Shown in FIG. 5: 1000 strokes

CC(O)CC(=O)OC(C)C (stereo not shown) [i-propyl 3-hydroxybutyrate, isopropyl 3-hydroxybutyrate]
Removal of wax layer: did not remove the wax layer | Number of Strokes in Wax Test Shown in FIG. 5: 1000 strokes

CCCCOC(=O)CC(C)O (stereo not shown) [n-butyl 3-hydroxybutyrate]
Removal of wax layer: did not remove the wax layer | Number of Strokes in Wax Test Shown in FIG. 5: 1000 strokes

CCCCOCCO [Ethylene glycol monobutyl ether]
Number of Strokes in Wax Test Shown in FIG. 5: 900 strokes

COC(C)COC(C)CO (stereo not shown) [DPM, dipropylene glycol methyl ether]
Number of Strokes in Wax Test Shown in FIG. 5: 1000 strokes

CCCCOCC(C)O (stereo not shown) [PnB, propylene glycol butyl ether]
Number of Strokes in Wax Test Shown in FIG. 5: 500 strokes

CCCOCC(C)O (stereo not shown) [PnP, propylene glycol propyl ether]
Number of Strokes in Wax Test Shown in FIG. 5: 500 strokes

Source: patent US9249378B2, “Aqueous cleaning compositions having enhanced properties” (Eastman Chemical Company, priority 2013, dated 2016)
